PMC6315388 (Biomedicines, 2018)

Experiment: general procedure: Fmoc solid-phase peptide synthesis; Rink amide resin (Lys(Boc)-NH-Rink resin 11); HBTU/DIEA; DIC/HOBt
Settings: whole synthesis, formate (FA) salt; for crude purity (method not given) / final purity (method not given): analytical RP-HPLC, LC-MS of cleaved resin aliquots; for isolated yield: on resin loading

Substance | crude purity (method not given) [%] | final purity (method not given) [%] | isolated yield [%] | crude purity (method not given) (run 1) [%] | crude purity (method not given) (run 2) [%]
H-Ala-D-Trp-Ala-AsF(4-F)-D-Phe-Lys-NH2 | 79 | >99 | 23 |  | 
H-His-D-Trp-Ala-(4-F)AsF-D-Phe-Lys-NH2 | 65 | >99 | 3 |  | 
H-His-D-Trp-Ala-(4-MeO)AsF-D-Phe-Lys-NH2 | 75 | >99 | 10 |  | 
H-His-D-Trp-Ala-AsF(4-HO)-D-Phe-Lys-NH2 | 70 | >99 | 9 |  | 
H-His-D-Trp-Ala-AsF-D-Phe-Lys-NH2 |  | >99 | 12 | 73 | 82
H-His-D-Trp-Ala-AsNal-D-Phe-Lys-NH2 | 61 | >99 | 10 |  | 
